PubChem BioAssay AID1224829 – NIAID, 2016

Screen: 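Genes needed for LPS-driven NF-kappaB p65 nuclear entry in mouse macrophages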 (follow-up of hits)
System: mouse RAW264.7 G9 macrophage reporter cells
Knock-down reagent: single siRNA against mouse genes, 100 nM
Duration: 2 days of siRNA knock-down, then 40 min of LPS before fixing
Conditions: LPS (Salmonella minnesota R595) at 10 ng/ml
Detection: 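High-content images after 40 min LPS exposure; GFP-p65 nucleus to surrounding ring signal ratio, normalised to plate median and non-targeting control wells, expressed as z-score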
Scale: p65 translocation z-score: higher = more nuclear NF-kappaB p65 after LPS
Call rule: 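Active means the replicate-mean z-score lies beyond plus or minus 2, in either direction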
Meaning of the calls: active = changed p65 translocation (either direction); inactive = no clear change
This is a random part of about 3,800 reagents. 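Calls cover raised and lowered translocation; gene median uses one vendor's three siRNAs; qiagen siRNAs acted more weakly than ambion siRNAs.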 Reagents against one gene are numbered here. Further read-outs or replicates are left out here.

target	reagent no.	siRNA vendor or control pool	p65 translocation z-score, replicate mean	Call
Nr2f2	1	ambion single siRNA	4.18	active
Nr2f2	2	ambion single siRNA	2.1	active
Nr2f2	3	ambion single siRNA	-2.71	active
Nr2f2	4	qiagen single siRNA	1.52	inactive
Nr2f2	5	qiagen single siRNA	-0.399	inactive
Nr2f2	6	qiagen single siRNA	0.841	inactive
Tmem139	1	ambion single siRNA	1.36	inactive
Tmem139	2	ambion single siRNA	0.155	inactive
Tmem139	3	ambion single siRNA	-2.61	active
Tmem139	4	qiagen single siRNA	0.867	inactive
Tmem139	5	qiagen single siRNA	1.93	inactive
Tmem139	6	qiagen single siRNA	-0.966	inactive
Or1e32	1	ambion single siRNA	0.539	inactive
Or1e32	2	ambion single siRNA	-1.6	inactive
Or1e32	3	ambion single siRNA	-2.11	active
Or1e32	4	qiagen single siRNA	1.96	inactive
Or1e32	5	qiagen single siRNA	1.03	inactive
Or1e32	6	qiagen single siRNA	1.42	inactive
Acot9	1	ambion single siRNA	0.407	inactive
Acot9	2	ambion single siRNA	-4.33	active
Acot9	3	ambion single siRNA	-1.61	inactive
Acot9	4	qiagen single siRNA	1.49	inactive
Acot9	5	qiagen single siRNA	-4.11	active
Acot9	6	qiagen single siRNA	-2.6	active
Rnf8	1	ambion single siRNA	-2.92	active
Rnf8	2	ambion single siRNA	-3.71	active
Rnf8	3	ambion single siRNA	-2.68	active
Rnf8	4	qiagen single siRNA	-0.354	inactive
Rnf8	5	qiagen single siRNA	-0.663	inactive
Rnf8	6	qiagen single siRNA	-1.04	inactive
Atg4d	1	ambion single siRNA	-1.21	inactive
Atg4d	2	ambion single siRNA	-1.4	inactive
Atg4d	3	ambion single siRNA	-1.41	inactive
Atg4d	4	qiagen single siRNA	0.739	inactive
Atg4d	5	qiagen single siRNA	5.31	active
Atg4d	6	qiagen single siRNA	-1.57	inactive

Taken from above.
Acot9 #2, siRNA vendor or control pool ambion single siRNA, Call: active
Entry for Rnf8 #6, siRNA vendor or control pool qiagen single siRNA under “p65 translocation z-score, replicate mean”: -1.04
Value for Acot9 #3, siRNA vendor or control pool ambion single siRNA under “Call”: inactive
